# PubChem BioAssay AID1508597 | Cure First, 2020
# Test: 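Knock-downs altering ovarian cancer cell survival with or without PARP inhibitor rucaparib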 (primary screen)
# Cell system: human ovarian carcinoma lines grown from tumours: OCI-P5x (papillary serous) and OCI-C5x (clear cell)
# Reagents: siRNA pool against human genes, 1.25 pmol siRNA per well
# Timing: 72 h or 96 h, depending on the cell culture
# Treatment: rucaparib 20 µM (about IC30) or vehicle, present until read-out
# Rucaparib or vehicle: Vehicle
# Cell line: OCI-P5x (serous)
# Read-out: 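ATP luminescence measured at 72 or 96 h according to the culture, then normalised and expressed as percent viability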
# Reading the numbers: viability, normalised: higher = more viable cells remaining
# Hit rule: 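a well counts as a hit if its normalised viability is under 80 percent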
# Calls: active = viability under 80%; inactive = viability 80% or more
# Shown is an unselected part of the about 2,100 reagents, under one of the conditions tested. 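Calls flag viability under 80% in either arm, not effects specific to rucaparib; the reference for percent is not stated.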 Entries without a mark were called inactive. Some reagents were tested in more than one well and are listed for each. Reagent sequences are not shown. The record does not give: the 100% reference.
gene,technical replicate,"viability, normalised (%)"
DHX8 (DEAH-box helicase 8),1,32.1 (active)
DHX8 (DEAH-box helicase 8),2,40.1 (active)
DHX8 (DEAH-box helicase 8),3,29.9 (active)
KPNA4 (karyopherin subunit alpha 4),1,80.7
KPNA4 (karyopherin subunit alpha 4),2,82.7
KPNA4 (karyopherin subunit alpha 4),3,80.6
"POLD1 (DNA polymerase delta 1, catalytic subunit)",1,69.4 (active)
"POLD1 (DNA polymerase delta 1, catalytic subunit)",2,83.8
"POLD1 (DNA polymerase delta 1, catalytic subunit)",3,72.5 (active)
TDRD7 (tudor domain containing 7),1,57.3 (active)
TDRD7 (tudor domain containing 7),2,82.6
TDRD7 (tudor domain containing 7),3,91.5
SALL1 (spalt like transcription factor 1),1,60 (active)
SALL1 (spalt like transcription factor 1),2,66.1 (active)
SALL1 (spalt like transcription factor 1),3,76.4 (active)
IP6K1 (inositol hexakisphosphate kinase 1),1,71.3 (active)
IP6K1 (inositol hexakisphosphate kinase 1),2,61.9 (active)
IP6K1 (inositol hexakisphosphate kinase 1),3,61.9 (active)
ATRIP (ATR interacting protein),1,34.5 (active)
ATRIP (ATR interacting protein),2,45.2 (active)
ATRIP (ATR interacting protein),3,53.6 (active)
ENPP4 (ectonucleotide pyrophosphatase/phosphodiesterase 4),1,38.7 (active)
ENPP4 (ectonucleotide pyrophosphatase/phosphodiesterase 4),2,25.2 (active)
ENPP4 (ectonucleotide pyrophosphatase/phosphodiesterase 4),3,28 (active)
SDC4 (syndecan 4),1,108
SDC4 (syndecan 4),2,97.8
SDC4 (syndecan 4),3,105
GNRHR (gonadotropin releasing hormone receptor),1,65 (active)
GNRHR (gonadotropin releasing hormone receptor),2,69.3 (active)
GNRHR (gonadotropin releasing hormone receptor),3,86.1
KHK (ketohexokinase),1,78.1 (active)
KHK (ketohexokinase),2,64.9 (active)
KHK (ketohexokinase),3,61.3 (active)
NFRKB (nuclear factor related to kappaB binding protein),1,61 (active)
NFRKB (nuclear factor related to kappaB binding protein),2,70.8 (active)
NFRKB (nuclear factor related to kappaB binding protein),3,89.5
WEE1 (WEE1 G2 checkpoint kinase),1,38.2 (active)
WEE1 (WEE1 G2 checkpoint kinase),1,23.1 (active)
WEE1 (WEE1 G2 checkpoint kinase),2,33.1 (active)
WEE1 (WEE1 G2 checkpoint kinase),2,22.1 (active)
WEE1 (WEE1 G2 checkpoint kinase),3,39.9 (active)
WEE1 (WEE1 G2 checkpoint kinase),3,25.6 (active)
PI4K2A (phosphatidylinositol 4-kinase type 2 alpha),1,71.1 (active)
PI4K2A (phosphatidylinositol 4-kinase type 2 alpha),2,65.8 (active)
PI4K2A (phosphatidylinositol 4-kinase type 2 alpha),3,67.2 (active)
EED (embryonic ectoderm development),1,28.9 (active)
EED (embryonic ectoderm development),2,31 (active)
EED (embryonic ectoderm development),3,70.7 (active)
PIP5K1B (phosphatidylinositol-4-phosphate 5-kinase type 1 beta),1,70.5 (active)
PIP5K1B (phosphatidylinositol-4-phosphate 5-kinase type 1 beta),2,56.2 (active)
PIP5K1B (phosphatidylinositol-4-phosphate 5-kinase type 1 beta),3,56.3 (active)
CLDN4 (claudin 4),1,74.5 (active)
CLDN4 (claudin 4),2,91.4
CLDN4 (claudin 4),3,138
CCNK (cyclin K),1,63 (active)
CCNK (cyclin K),2,60.1 (active)
CCNK (cyclin K),3,54 (active)

3 consecutive reagents from above:
gene,technical replicate,"viability, normalised (%)"
KHK (ketohexokinase),2,64.9 (active)
KHK (ketohexokinase),3,61.3 (active)
NFRKB (nuclear factor related to kappaB binding protein),1,61 (active)
